Source: paper PMC9293756
Results are given in words; binding and its absence hold for the method and conditions named. In cells and extracts the contact can be indirect. Some binding calls cover weakened binding; strength is not graded here.

Sequences of proteins named here, by UniProt entry; tags and fusion partners are left off.
UniProt P04198: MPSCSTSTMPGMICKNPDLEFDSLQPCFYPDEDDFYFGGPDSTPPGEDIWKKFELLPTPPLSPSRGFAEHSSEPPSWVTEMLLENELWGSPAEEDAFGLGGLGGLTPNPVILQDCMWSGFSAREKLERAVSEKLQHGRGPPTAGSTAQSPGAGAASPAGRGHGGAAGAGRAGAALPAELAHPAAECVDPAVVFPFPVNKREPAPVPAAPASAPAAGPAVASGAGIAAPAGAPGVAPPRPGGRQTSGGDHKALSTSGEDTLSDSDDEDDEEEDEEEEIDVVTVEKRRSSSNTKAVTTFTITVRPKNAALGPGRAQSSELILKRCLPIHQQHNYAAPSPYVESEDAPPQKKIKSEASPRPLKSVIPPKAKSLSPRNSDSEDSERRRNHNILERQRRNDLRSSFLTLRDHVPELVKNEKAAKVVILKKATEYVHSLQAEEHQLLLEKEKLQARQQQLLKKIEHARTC
UniProt Q969H0: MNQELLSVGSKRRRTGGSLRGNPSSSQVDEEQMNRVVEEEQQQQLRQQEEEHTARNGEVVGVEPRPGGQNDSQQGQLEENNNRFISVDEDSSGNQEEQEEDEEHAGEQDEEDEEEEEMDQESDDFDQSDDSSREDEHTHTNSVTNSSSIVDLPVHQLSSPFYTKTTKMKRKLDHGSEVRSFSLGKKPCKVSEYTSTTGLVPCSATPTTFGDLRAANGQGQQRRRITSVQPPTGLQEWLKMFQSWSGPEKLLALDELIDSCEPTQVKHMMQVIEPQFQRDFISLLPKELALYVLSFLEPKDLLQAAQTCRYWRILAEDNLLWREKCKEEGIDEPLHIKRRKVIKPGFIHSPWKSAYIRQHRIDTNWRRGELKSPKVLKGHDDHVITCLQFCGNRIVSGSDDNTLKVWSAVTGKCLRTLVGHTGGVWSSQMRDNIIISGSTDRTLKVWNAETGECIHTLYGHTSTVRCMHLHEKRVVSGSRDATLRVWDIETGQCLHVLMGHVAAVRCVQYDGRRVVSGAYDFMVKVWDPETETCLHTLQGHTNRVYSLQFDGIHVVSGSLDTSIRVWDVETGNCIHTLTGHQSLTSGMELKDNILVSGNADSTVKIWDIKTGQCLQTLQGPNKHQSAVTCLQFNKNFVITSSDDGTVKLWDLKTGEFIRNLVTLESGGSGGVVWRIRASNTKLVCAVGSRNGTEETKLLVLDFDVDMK

Target: MYCN (human (endogenous in SK-N-BE(2)-C)) (UniProt P04198)
Assay: proximity ligation; DuoLink PLA (Sigma) on SK-N-BE(2)-C cells, with or without verlindamycin treatment; confocal microscopy, dots scored with DuoLink ImageTool

- binding: binds
Substance: FBXW7 ubiquitin ligase (from UniProt Q969H0 1-707)
